Some of the results follow.

Sequences and labels used below:
B1: il10ra_site1_sap_21_mot_HHH_b2_05264_000000272_0001_1_21_H_._006bfdfc862164e346ab3bed36ecaee2_0001_1_0001_0000400017_0000001_0_0001 (protein)
chain: SSSSDEEEYRREVEELLEEAEHIPDDEEASKLLLEAVRLAFELQDPELLRLIWEVVRRVASSSSS
B2: il10ra_site1_normal_mot_HHH_b2_03434_000000017_0001_1_19_H_._HHH_b1_01284_0001_0000100005_0000002_0 (protein)
chain: SSSSDEADEIYKLLRRIIELINEGNPEEAQELLKEVRELAEELNDPVMRFLVEFLQEELERSSSS
B3: il10ra_site1_normal_mot_HHH_b2_02053_af2_000000006_0001_3_19_H_._HHH_b2_05626_0001_0000400022_0000002_0_af2pred_0001 (protein)
chain: SSSSSSASEEVRRLLREALHIDDPEEAEKVVEEALEVAEENNNLVAALIAEFLLRRLRNSSSSSS
B4: il10ra_site1_sap_19_mot_HHH_b2_03328_af2_000000127_0001_1_19_H_._HHH_b1_03999_af2_0001_0000400025_0000001_0_0001 (protein)
chain: SSSSSDEELFELAEEALELMANGNPEEARKVLEEAIELAEELGNQVVLHALRLLLEDLNSSSSSS
B5: il10ra_site1_sap_21_mot_HHH_b2_02053_af2_000000006_0001_3_19_H_._HHH_b1_07138_0001_0000100004_0000001_0_0001 (protein)
chain: SSSSSDIEEEVEELIEELEKLLRNGDPERASRVAVRALRLIYRLGDAELLRELWEVFTSHSSSSS
B6: il10ra_site1_normal_mot_HHH_b2_00345_af2_000000013_0001_42_56_H_._HHH_b1_01655_0001_0000400040_0000001_0 (protein)
chain: SSSSSSDEYFHEVWELIKRAIEDPREREELVEEAKELAEEYNNEVLKYAVRALEQNLNSSSSSSS
B7: il10ra_site1_normal_mot_HHH_b1_06667_af2_000000019_0001_42_58_H_._HHH_b1_07502_0001_0000400036_0000001_0 (protein)
chain: SSSSYEENARRFIRFLLEDLRHVSEEEREEALEAIRFLVEAHGDPEVEELLEEAEELLERLSSSS
B8: il10ra_site1_sap_19_mot_HHH_b2_00943_af2_000000149_0001_1_17_H_._490a3029bfe5beb5158d6c054c504315_0001_1_0001_0000200008_0000002_0_0001_af2pred_0001 (protein)
chain: SSSSSEEQEVAELLFRVIELWARGNPEEAEEVLKEAERLAKELGDEELERAVEIAKRFVENSSSS
B9: il10ra_site1_sap_24_mot_HHH_b2_01205_000000166_0001_1_19_H_._HHH_b1_08543_0001_0000100008_0000002_0_0001 (protein)
chain: SSSSQEAFKRAKELIERIIQLYEEGNPEEAEKLLEELEELARERGNWALRWTVRLLRRILSSSSS
B10: il10ra_site1_sap_10_mot_HHH_b2_04646_000000019_0001_1_20_H_._HHH_b1_08608_af2_0001_0000200016_0000001_0_0001_af2pred_dldesign_0_af2pred (protein)
chain: SSSSSAKKAKVEELIAKAKKLEDPVERATVLREAHLLADEIKDAEAWKAVVDAAVELYKESSSSS
B11: il10ra_site1_sap_26_mot_HHH_b2_06857_af2_000000179_0001_42_54_H_._HHH_b2_06375_0001_0000600034_0000002_0_0001_af2pred_0001 (protein)
chain: SSSTFTERVIELLKRVIELDHEGDLEEAEELLEEAKRLAEEGNNLALRKSVEHLQRIVELTSSSS
B12: il10ra_site1_sap_18_mot_HHH_b2_02745_000000002_0001_1_20_H_._HHH_b2_07311_0001_0000300008_0000002_0_0001_af2pred_0001 (protein)
chain: SSSSSQEELELRVLIRLAKSALRDGNPRAARILLEFARELAEELGTPLVEEVERLLEELNSSSSS
B13: il10ra_site1_sap_22_mot_HHH_b2_02736_000000092_0001_22_38_H_._HHH_b1_03416_af2_0001_0000100002_0000002_1_0001 (protein)
chain: SSSSSVVEIAQEALHLAAQLNDEEAFQAIWELVKKYVETGDERIREELEELLEELEEELDSSSSS
B14: il10ra_site1_sap_28_mot_HHH_b1_05377_000000047_0001_42_55_H_._HHH_b1_07584_af2_0001_0000100001_0000001_0_0001 (protein)
chain: SSSSDEVREEVEELIEEVEELLRRGNPEEAMRVLAEALQLVLRAGDEELLRELWELAKKLASSSS
B15: il10ra_site1_sap_18_mot_HHH_b1_00682_000000235_0001_1_20_H_._HHH_b2_01115_0001_0000400025_0000001_0_0001 (protein)
chain: SSSDAEQATRAAEHALEVLLRDGNPEEAEIALEFWARLDEADGNPELAEELREIFEELKEKLSSS
B16: il10ra_site1_sap_25_mot_HHH_b2_07873_af2_000000172_0001_1_19_H_._HHH_b1_04175_0001_0000100003_0000001_0_0001_af2pred_0001 (protein)
chain: SKEDRIRLSAENAADLAGVPSFEVEVHNGHLEVTLEGNDEAVRQAELLIRLAAKLLGIPVEVTTE
B17: il10ra_site1_normal_mot_8756ee2cf497b5429c717dfc0c0bcfd6_0001_000000186_0001_1_13_H_._HHH_b1_05110_0001_0000500026_0000002_0_af2pred_0001 (protein)
chain: SSSSNEELERVYRLLRRLAELLSEGDDEEARELIEEAKQLIEELNNETLRAILEFLEKILNSSSS
B18: il10ra_site1_sap_20_mot_7b9cde51a6333c7db752d4c93e9fe982_0001_000000133_0001_1_12_H_._HHH_b2_00556_0001_0000100005_0000001_0_0001 (protein)
chain: SSSSSSSSEEEVEEILEEAEKVDDQEEANEILLEALKLAAELQDPEALRLVWRVVERLSSSSSSS

The target in this experiment is il10ra, Q13651. The experiment in a line: yeast display titration.
B1: the “apparent Kd” value is “inactive: no binding seen”.
As for B2, the entry is “inactive: no binding seen”; as for B3, “inactive: no binding seen”; as for B4, “inactive: no binding seen”.
The result for B5 reads “inactive: no binding seen”; that for B6, “inactive: no binding seen”; that for B7, “inactive: no binding seen”.
With B8, the “apparent Kd” value is “inactive: no binding seen”.
B9: the “apparent Kd” value was “inactive: no binding seen”.
As for B10, the entry is “inactive: no binding seen”.
Consider B11, for which the “apparent Kd” value is “inactive: no binding seen”.
The result for B12 reads “inactive: no binding seen”.
For B13, the “apparent Kd” value was “inactive: no binding seen”.
Regarding B14, the “apparent Kd” value was “inactive: no binding seen”.
As for B15, the entry is “inactive: no binding seen”.
The result for B16 reads “inactive: no binding seen”; that for B17, “inactive: no binding seen”.
The result for B18 reads “inactive: no binding seen”.

The record behind these values is PMC10163288.
